Test results reported in PubChem BioAssay AID595 (National Center for Advancing Translational Sciences (NCATS), 2007).
About 310 (0.44%) of roughly 71,000 compounds were called active. Inconclusive results, whose numbers are uncertain, are shown with a selection of clear calls. The call rests on the fitted dose curve; in most records, active means well fitted curve in either direction with a large enough effect; inconclusive means small, poorly fitted or top-dose-only effect, or another doubt; inactive means flat fitted curve, though single readings scatter. A potency beside an inconclusive call is a rough fit, not a confirmed value.

system: Hsp90 C-terminal peptide / TPR2A (Hop) interaction, human; test: qHTS Assay for Disrupters of an Hsp90 Co-Chaperone Interaction; conditions: AlphaScreen TPR2A-His6 binding biotin-Hsp90 C-terminal peptide; activity change, negative = inhibition: at 57 µM (top of the series) unless noted
On the % scale 0 is the no-effect control and ±100 the full control effect; potency means the concentration at half of the fitted maximal effect.

| SMILES | activity change, negative = inhibition | Potency |
| --- | --- | --- |
| C=CCOC(=O)C1=C(C)NC(=O)NC1/C=C/c1ccccc1 (configuration not stated) | inconclusive: 45.2% |  |
| CN(Cc1ccccc1)c1oc(COc2ccccc2F)nc1C#N |  | inconclusive: 15.8 µM [inhibitor, partial curve] |
| CCN(CC)C(=O)COc1cccc2ccccc12 | inconclusive: 44.9% |  |
| Cc1ccc(-n2c(N)c(-c3nc4ccccc4n3C)sc2=S)cc1 | inactive |  |
| O=C(Cn1nnc2c(cnn2-c2ccc(F)cc2)c1=O)OC1CCCCC1 |  | inconclusive: 25.1 µM [activator, single point] |
| O=c1c(CCc2ccccc2)nc2cncnc2n1Cc1ccc(F)cc1 |  | inconclusive: 39.8 µM [activator, single point] |
| CC(C)(C)NS(=O)(=O)c1cccc2nsnc12 | inactive |  |
| NS(=O)(=O)O | inconclusive: 53.1% |  |
| O=[N+]([O-])c1cccc(/C=N\Nc2ccc3ccccc3n2)c1O |  | inconclusive: 3.16 µM [inhibitor, partial curve] |
| CC(C)Oc1ccc(C(=O)Nc2ccc(N3CCCC3)cc2)cc1 |  | inconclusive: 3.98 µM [inhibitor, single point] |
| COc1ccc(-c2noc(Cc3ccccc3OC)n2)cc1 |  | inconclusive: 31.6 µM [activator, single point] |
| C=C[C@@](C)(O)CC[C@H]1[C@]2(C)CCCC(C)(C)[C@H]2CC[C@]1(C)O | inactive |  |
| Nc1ncnc2c1nc(Sc1ccc(Cl)cc1)n2[C@@H]1O[C@H]2COP(=O)(O)O[C@@H]2[C@H]1O | inactive |  |
| CCC(=O)Nc1ccc(C(=O)Cn2nc(C(=O)O)c3ccccc3c2=O)cc1 | inactive |  |
| CCSC(N)=Nc1ccc(C(F)(F)F)cc1 |  | inconclusive: 12.6 µM [inhibitor, single point] |
| COc1ccc(OC)c(/C=c2\sc3nc(-c4cccs4)nn3c2=O)c1 | inconclusive: 52.5% |  |
| Cn1c(=O)c2c(nc(NCCc3ccccc3)n2CC(=O)NCCc2ccccc2)n(C)c1=O | inconclusive: 54.5% |  |
| Cn1cccc1C(=O)N1CCC2(CCCN(c3cccc(-c4ccccc4)c3)C2)CC1 |  | inconclusive: 25.1 µM [inhibitor, partial curve] |
| COc1ccc(CNc2nc3c(c(C(F)(F)F)n2)CCCCC3)cc1 |  | inconclusive: 31.6 µM [activator, single point] |
| COc1cccc(Oc2cn[nH]c2-c2ccc(OC)cc2O)c1 | inactive |  |
| NC(N)=[N+]1CCc2ccccc2C1 |  | inconclusive: 31.6 µM [inhibitor, single point] |

| SMILES | activity change, negative = inhibition | Potency |
| --- | --- | --- |
| CCOc1ccc2nc(SCC(=O)N3CCCCCC3)c(C#N)cc2c1 | inactive |  |
| N#CCCN1CCN(C(=S)c2ccc(-c3ccc(Cl)cc3)o2)CC1 |  | inconclusive: 31.6 µM [inhibitor, single point] |
| COc1ccc(C(=N/O)/C(=N/O)c2ccc(OC)cc2)cc1 | inactive |  |
| O=C(O)c1ccc(NS(=O)(=O)c2cc(Cl)ccc2Cl)cc1 | inconclusive: 45.5% |  |
| CCOCCN1CCN(c2c(C)c(C)nc3cc(-c4cc(OC)cc(OC)c4)nn23)CC1 | inconclusive: 43.6% |  |
| COc1ccc2[nH]c3nc(SCc4nnc(-c5ccc(C)cc5)o4)nnc3c2c1 | inactive |  |
| CCCCOCCOCCSC#N | inactive |  |
| Cc1ccc(C2=C(Cl)C(=O)C(c3ccc(C)cc3)=C(Cl)C2=O)cc1 | inactive: -3.07% [at 11 µM] |  |
| O=C(COC(=O)CSCC(=O)N1CCCCC1)NCc1ccc(F)cc1 | inactive |  |
| COc1ccc(-n2c(N)c(C(=O)NCC3CCCO3)c3nc4ccccc4nc32)c(OC)c1 (configuration not stated) |  | inconclusive: 25.1 µM [activator, single point] |
| CCOC(=O)c1ccc2c(c1)N(CC(=O)N1CCCC1)C(=O)C(C)(C)O2 | inconclusive: 45.2% |  |
| C[C@@H](Nc1nc(-c2ccccc2)nc2c1oc1ccccc12)C(=O)O | inconclusive: 53.8% |  |
| CCOC(=O)CCSc1nc2c(c(C(F)(F)F)c1C#N)CCC2 |  | inconclusive: 25.1 µM [activator, single point] |
| c1ccc(Cn2nnnc2CN2CCCC2)cc1 | inconclusive: 48.2% |  |
| O=C1C2=C(Nc3ccccc3SC2c2ccco2)c2ccccc21 (configuration not stated) |  | inconclusive: 25.1 µM [inhibitor, partial curve] |
| C=CCc1cccc(CNc2nc3ccccc3n2CCN2CCOCC2)c1O | inactive |  |
| COc1ccc(S(=O)(=O)Cc2ccc(C(=O)N3CCC(C(N)=O)CC3)o2)cc1 | inconclusive: 54.4% |  |
| O=c1c2ccccc2nc(-c2ccco2)n1Cc1ccccc1 | inactive |  |
| COc1ccc(C(=O)/C=C/Nc2cc(C)on2)c(OC)c1 | inactive |  |
| COc1ccc2cc(C#N)c(NC(C)C)nc2c1 |  | inconclusive: 25.1 µM [activator, single point] |
| C=CCc1cccc2cc(NC(C)=O)c(=O)oc12 | inconclusive: 44.8% |  |

A draw from above in order of heavy-atom count, high to low.

| SMILES | activity change, negative = inhibition | Potency |
| --- | --- | --- |
| COc1ccc(-n2c(N)c(C(=O)NCC3CCCO3)c3nc4ccccc4nc32)c(OC)c1 (configuration not stated) |  | inconclusive: 25.1 µM [activator, single point] |
| COc1ccc2[nH]c3nc(SCc4nnc(-c5ccc(C)cc5)o4)nnc3c2c1 | inactive |  |
| CCOc1ccc2nc(SCC(=O)N3CCCCCC3)c(C#N)cc2c1 | inactive |  |

(next part)

| SMILES | activity change, negative = inhibition | Potency |
| --- | --- | --- |
| CN(C)c1ccc(N=Nc2cccc3ccoc23)cc1 |  | active: 3.98 µM |
| COc1cccc(-c2cc(C(F)(F)F)nc(NCc3ccco3)n2)c1 | inconclusive: 146% |  |
| COC(=O)c1c(NC(=O)c2ccco2)sc(C(=O)Nc2ccc(F)cc2)c1C | inactive |  |
| CCn1c(COc2cccc(OC)c2)nnc1SCC(=O)Nc1ccccc1C(=O)OC | inactive |  |
| CCOC(=O)c1c(N)sn(-c2ccccc2)c1=S |  | inconclusive: 20 µM [inhibitor, single point] |
| O=C(CN1C(=O)c2ccccc2S1(=O)=O)Nc1ccccc1C(=O)NCc1ccco1 | inconclusive: 41.7% |  |
| Nn1c(SCC(=O)Nc2ccc(F)cc2)nnc1-c1ccccn1 |  | inconclusive: 25.1 µM [inhibitor, single point] |
| COc1ccc(C(c2nnnn2Cc2ccc(F)cc2)N2CCN(c3ccc(OC)cc3)CC2)cc1 (configuration not stated) |  | inconclusive: 25.1 µM [inhibitor, single point] |
| Cn1c(NCc2c[nH]c3ccccc23)nc2ccccc21 | inactive |  |
| Cc1cc(/C=N/n2cnnc2)c(C)n1-c1ccc(Cl)cc1Cl | inactive: -20.4% [at 11 µM] |  |
| CN(C)Cc1ccccc1-c1nc(N2CCOCC2)c2ccccc2n1 | inactive |  |
| CCOc1ccc(C2C=C(c3ccc(C)cc3)Nc3nnnn32)cc1 (configuration not stated) | inactive |  |
| CCN(CC)C(=O)CSc1nnc(-c2ccccc2)n1N | inconclusive: 43.2% |  |
| C=CCN1C(=Nc2cccnc2)SCC1(O)c1ccc(C)cc1 (configuration not stated) |  | inconclusive: 20 µM [inhibitor, partial curve] |
| Cc1ccc(CNC(=O)C2CCCN(S(=O)(=O)c3cnc[nH]3)C2)cc1 (configuration not stated) | inconclusive: 49% |  |
| COc1ccccc1OCc1nc(C#N)c(N2CC(C)CC(C)C2)o1 (configuration not stated) |  | inconclusive: 25.1 µM [inhibitor, partial curve] |
| COc1cccc(-c2nccc(NCCc3c[nH]c4ccc(OC)cc34)n2)c1 |  | inconclusive: 39.8 µM [inhibitor, single point] |
| CCCC(=O)c1cc(F)c(N2CCN(S(=O)(=O)c3ccccc3)CC2)cc1C | inconclusive: 112% [at 11 µM] |  |
| Cc1ccccc1OC(C)c1nc(-c2ccccc2)no1 (configuration not stated) |  | inconclusive: 31.6 µM [activator, single point] |
| Cc1noc(C)c1COc1cccc(C(=O)OCCOc2ccc(F)cc2)c1 |  | inconclusive: 25.1 µM [activator, single point] |
| CCOC(=O)C1CCCN(Cc2ccccc2F)C1 (configuration not stated) | inconclusive: 38.5% |  |

A different layout for part of the listing above:
C=CCc1cccc(CNc2nc3ccccc3n2CCN2CCOCC2)c1O
  activity change, negative = inhibition: inactive
COc1ccc(S(=O)(=O)Cc2ccc(C(=O)N3CCC(C(N)=O)CC3)o2)cc1
  activity change, negative = inhibition: inconclusive: 54.4%
O=c1c2ccccc2nc(-c2ccco2)n1Cc1ccccc1
  activity change, negative = inhibition: inactive
COc1ccc(C(=O)/C=C/Nc2cc(C)on2)c(OC)c1
  activity change, negative = inhibition: inactive

Additional entries.

| SMILES | activity change, negative = inhibition | Potency |
| --- | --- | --- |
| O=C(c1ccccc1)c1cc2ccccc2o1 | inconclusive: 31.4% |  |
| CSc1ncccc1C(=O)OCc1ccccc1F |  | inconclusive: 31.6 µM [activator, single point] |
| CC1=CC(=O)c2ccccc2C1=O | inactive |  |
| COc1cccc(OC)c1C(=O)N1CC(C)OC(C)C1 (configuration not stated) | inactive |  |
| Cc1cc(N2CCCCC2)n2nc(C)c(-c3ccccc3)c2n1 |  | inconclusive: 31.6 µM [activator, single point] |
| S=C([S-])NCCNC(=S)[S-].[Zn+2] |  | active: 15.8 µM |
| O=[N+]([O-])c1ccc2c(c1)S(=O)c1ccccc1-2 (configuration not stated) | inactive: -1.23% [at 11 µM] |  |
| COCCCn1c(C2CCCCC2)nc2oc3cc(OC)ccc3c(=O)c2c1=O | inconclusive: 38.8% |  |
| COCCn1c(=S)[nH]c2cc(C(=O)N3CCC(C(N)=O)(N4CCCCC4)CC3)ccc2c1=O |  | inconclusive: 39.8 µM [inhibitor, single point] |
| CC(C)OC(=O)CCc1nc2ccccc2[nH]c1=O | inconclusive: 40.4% |  |
| Cc1ccc(CNc2ccc(O)cc2)cc1 |  | inconclusive: 25.1 µM [inhibitor, single point] |
| Cc1cc(/C=N/n2cnnc2)c(C)n1-c1ccc(C(=O)O)cc1 | inconclusive: 35.8% |  |
| Cn1c(=O)c2[nH]c(CCCCc3nc4ccccc4[nH]3)nc2n(C)c1=O | inconclusive: 84.7% [at 11 µM] |  |
| Cc1cc(NC(=O)c2cnn3cccnc23)nn1CC(=O)Nc1cccnc1 | inconclusive: 42.9% |  |
| Clc1ccc(-c2noc(COc3ccccc3)n2)cc1 |  | inconclusive: 25.1 µM [activator, single point] |
| Cc1[nH]c(=O)[nH]c(=O)c1S(=O)(=O)N1CCCC(C(=O)N2CCN(c3ccccc3Cl)CC2)C1 (configuration not stated) | inconclusive: 37.7% |  |
| O=S(=O)(O)c1cc(O)c2c(O)c(N=Nc3cccc4ccccc34)c(S(=O)(=O)O)cc2c1 |  | inconclusive: 3.16 µM [inhibitor, partial curve] |
| COc1ccc(-n2c(SCC#N)nnc2-c2cccnc2)cc1 | inconclusive: 53.4% |  |
| COc1cccc(-c2c(NC(=O)c3ccco3)n(-c3ccc(C)cc3)nc(C)c2=O)c1 | inconclusive: 41.6% |  |
